# Measurements: patent US20090105343A1, “Cancer Therapy And Medicaments Therefor” (The University of Birmingham, priority 2004, published 2009)
# For at least one compound, name, drawing or mass did not settle the structure.
# Tests used:
# Type in all cases: cell-based
# [1] = system: prostate cancer cell lines; assay: Proliferation assay (ATP bioluminescence), prostate cancer cell lines, single agents and combinations; details: for interaction of the ligand with SAHA on proliferation: co-treatment with SAHA
# Method: (§1) The action of individual agents alone and in combination was examined using a bioluminescent technique to measure changes in cellular ATP (ViaLight HS, LumiTech, Nottingham, U.K.) with previously optimised conditions according to the manufacturer's instructions (Rashid, S. F. et al. Supra). Briefly, cells were plated in 96 well white-walled tissue culture-treated plates (Fisher Scientific Ltd. Loughborough, U.K.) (cancer cell lines at 2×10^3 cells/well; PrEC at 3.5×10^3 cells/well). […] After the incubation period, 100 μl of nucleotide releasing reagent was added to each well and cells were left for 30 minutes at room temperature. Liberated ATP was quantitated by adding 20 μl of ATP monitoring reagent (containing luciferin and luciferase) and measuring luminescence with a microplate luminometer (Berthold Detection Systems, Fisher Scientific Ltd.). ATP levels were recorded in relative luciferase units and growth inhibition was expressed as a percentage of control.
# The interactions of two compounds were assessed by measuring the mean of either the nuclear receptor ligand or the HDAC inhibitor acting alone or in combination. The mean observed combined effect was compared to the individual effects of the agents added together, using the Student's t-test. […] All other analyses were also compared using the Student's t-test.
# EJ-28 = assay: Proliferation assay (ATP bioluminescence), EJ-28 bladder cancer cells; details: EJ-28, co-treatment with SAHA
# Method: as §1
# GADD45α [2] = assay: GADD45α gene induction (Q-RT-PCR); details: 0.1 μM, 8 hr
# Method: Cells were seeded at a density of 2×10^4/cm^2 and allowed to grow for 36 h to ensure that cells were in mid-exponential phase upon treatment. Total RNA was extracted using the GenElute RNA extraction system (Sigma) according to manufacturer's instructions. Primary cultures were serially passaged and grown to 80% confluency in standard serum-free medium. Cells were fed one day prior to isolation of total RNA using the Qiagen RNeasy Midi kit (Qiagen, Palo Alto, Calif., USA).
# For real time reverse transcription-polymerase chain reaction (RT-PCR), cDNA was prepared from 1 μg of total RNA by reverse transcription with Mu-MLV (Promega Southampton, UK) at 42° C. for 60 min in the presence of 100 mM Tris-HCl, pH 9.0, 500 mM KCl and 2 mM MgCl2, 100 μM random hexamers (Pharmacia, Pisacataway, N.J.), 2 mM dNTP and 20 U RNAsin (Promega) in a 20 μl reaction volume.
# Expression of specific mRNAs was quantitated using the ABI PRISM 7700 Sequence Detection System. […]
# Data were expressed as Ct values (the cycle number at which logarithmic PCR plots cross a calculated threshold line) and used to determine δCt values (δCt=Ct of the target gene minus Ct of the housekeeping gene). […]
# GADD45α [3] = assay: GADD45α induction in PC-3 cells after SMRT knock down; details: SMRT knocked down by RNAi
# From the text: SIRNA fragments (22mers) were generated in vitro using a Dicer generation system according to the manufacturer's protocol (Gene Therapy Systems, San Diego, Calif.). Briefly, a 650 bp region from the human SMRT gene sequence corresponding to 112 to 762 was amplified using the following primers containing T7 promoter sequences;
# FS: 5′-[…]-3′ and RV: 5′-[…]-3′. This was subsequently cloned into the pGEM T easy vector (Promega), using the multiple cloning sites to allow for sequencing, large scale harvest. Digestion with ECoR1 released a pure concentrated template for in vitro […] with primers containing T7 recognition sequences to generate double stranded mRNA. This was subsequently cleaved with recombinant human Dicer enzyme to generate a pool of 22mers which cover the region targeted in the 5′prime region of the SMRT gene. Five hundred ng of purified double stranded RNA 22mers were transfected into each well (2×10^5 cells/well in 24-well plates) for 12 hrs. Cells were then left for a further 72 hr to allow gene silencing and subsequently treated with 1α,25(OH)2D3 (100 nM) for 6 hr and total RNA was harvested and Q-RT-PCR for SMRT and target genes was undertaken as above.
SMILES,interaction of the ligand with SAHA on proliferation [1],ligand action in EJ-28 cells on co-treatment with SAHA (EJ-28),"GADD45α induction, individual agent alone (GADD45α [2])",co-operation of the ligand with NaB ([1]; co-treatment with NaB),augmentation of the ligand's action by TSA ([1]; co-treatment with TSA),GADD45α induction by ligand alone after SMRT knock down (GADD45α [3])
"CC/C=C\C/C=C\C/C=C\C/C=C\C/C=C\CCCC(=O)O [EPA, Eicosapentaenoic acid]",same strong interactions,,,,,
"C[C@H](CCC(=O)O)[C@H]1CC[C@H]2[C@@H]3CC[C@@H]4C[C@H](O)CC[C@]4(C)[C@H]3CC[C@]12C [LCA, lithocholic acid]",,restored the actions,,,,
CC(C)(Oc1ccc(CCNC(=O)c2ccc(Cl)cc2)cc1)C(=O)O [bezafibrate],profound and strong interaction,,not significant,does co-operate,does not augment,very strongly enhanced
